This passage reports cell number change and AC50 results from PubChem BioAssay AID2685 (National Center for Advancing Translational Sciences (NCATS), 2010).

The structures appear in SMILES notation. The list shows a part of the results. The main result of the screen is listed elsewhere. These columns were measured beside it and carry no call. The list favours compounds with an active or inconclusive main result. The note in brackets gives the kind of curve behind each potency; many fits are weak.

A short description of this assay: qHTS Assay for Lipid Storage Modulators in Drosophila S3 Cells.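 As to cell number change: cells counted by Cell Tracker Red CMTPX staining in the red channel.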 As to conditions: BODIPY lipid droplet fluorescence, 18-24 h; for cell number change: measured here: cell count max response, cells fed with added oleic acid. Put shortly:
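Drosophila S3 cells got compounds at several concentrations plus oleic acid (400 uM solution). Laser-scanning cytometry with 488 nm excitation read lipid droplets at 500-530 nm and cells at 575-640 nm. Percent activity was relative to 20 uM Triacsin C.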

Where [1] appears, read: measured here: cell number channel AC50, cells fed with added oleic acid.
Setting [2] is: measured here: lipid fluorescence (Fed channel) AC50, cells fed with added oleic acid.

Turning to `O=C(O)c1cc(-c2c[nH]c3ccccc23)nc2ccc3ccccc3c12`, the cell number change amounted to 34.4%. Moreover, the concentration at half-maximal activity (AC50) (as a rule, the concentration giving half of the maximal activity seen) under setting [1] is 29.1 µM [rising, single point].

Turning to `O=C(CN(CCCN1CCOCC1)C(=O)Cn1nnc(-c2ccc(F)cc2)n1)NC1CCCCC1`, the cell number change amounted to 0.263%. For the same compound, the AC50 under setting [2] is 2.31 µM [falling, partial curve, poor fit].

On to `CC12CCC(C/C1=N/O)C2(C)CBr` (stereo unspecified), for which the cell number change is -25.1%. In addition, the half-maximal activity concentration (AC50) under setting [1] is 2.06 µM [falling, partial curve, poor fit]. Further, under setting [2], the AC50 was 2.59 µM [falling, full curve].

Take `CNC(=S)N/N=C/c1cn(Cc2ccc(C)cc2)c2ccccc12`: the cell number change was -3.47%.

Consider `CC12CCC(C(=O)NNc3ccc([N+](=O)[O-])cc3)(CC1=O)C2(C)C` (stereo unspecified), for which the cell number change is -0.393%.

In the case of `CCS(=O)(=O)c1nc2ccccc2n1Cc1ccccn1`, the cell number change is -46.3%. Further, the AC50 under setting [1] is 29.1 µM [falling, single point]. The AC50 under setting [2] is 29.1 µM [falling, single point].

Take `COc1ccc(-n2nc3ccc(N)cc3n2)cc1Cl`: the cell number change was -13.9%. The AC50 under setting [2] was 29.1 µM [falling, single point].

In the case of `CCn1c(CNC(=O)COc2ccc(C(C)C)cc2)nnc1SCC(=O)Nc1ccccc1`, the cell number change was 53.8%. Besides, the AC50 under setting [1] was 23.1 µM [rising, single point].

In the case of `COc1ccc(CCNC(=O)CCc2ccc(S(=O)(=O)NCC(C)C)cc2)cc1OC`, the cell number change was -31%. For the same compound, the half-maximal activity concentration (AC50) under setting [1] was 14.6 µM [falling, partial curve, poor fit]. The AC50 under setting [2] is 11.6 µM [falling, partial curve, poor fit].

Take `O=C(Nc1ccccc1)N1CCSc2cc(Cl)ccc21`: the cell number change worked out at 60.1%. The AC50 under setting [1] was 23.1 µM [rising, partial curve, poor fit].

For `O=C(NCCCn1ccnc1)c1sc2cccc(F)c2c1Cl`, the cell number change was determined as 1.39%. The AC50 under setting [1] is 0.82 µM [rising, full curve, poor fit]. Besides, under setting [2], the AC50 is 1.3 µM [rising, partial curve].

In the case of `CC1(C)CC(n2c(NCCO)nc3c(c2=O)C2(CCCC2)Cc2ccccc2-3)CCO1` (stereo unspecified), the cell number change was -2.67%. Under setting [2], the half-maximal activity concentration (AC50) was 0.103 µM [falling, full curve, poor fit].

Turning to `Cc1onc(-c2c(F)cccc2Cl)c1C(=O)OCC(=O)Nc1c(C)n(C)n(-c2ccccc2)c1=O`, the cell number change was -21.9%. Besides, the AC50 under setting [2] was 14.6 µM [falling, partial curve].

As to `CCCCN(C(=O)c1cnc2n(c1=O)CCS2)c1ccccc1`, the cell number change amounted to 5.74%. Also, the AC50 under setting [1] was 1.16 µM [falling, full curve].

Regarding `Cc1ccc(NC(=O)CSc2nncn2N)cc1C`, the cell number change stood at 30.3%. Besides, under setting [1], the AC50 is 0.0651 µM [rising, full curve, poor fit].

For the compound `Cc1cccc(N2C(=O)CN=C2Nc2nc(C)cc(C)n2)c1`, the cell number change was determined as 33.4%. Also, the AC50 under setting [1] was 6.51 µM [rising, partial curve]. Besides, the AC50 under setting [2] is 0.731 µM [rising, full curve].

Regarding `CCN(CC)CCN(C(=O)c1ccc(S(=O)(=O)N(CC)c2ccccc2)cc1)c1nc2c(OC)ccc(OC)c2s1`, the cell number change was -0.215%. For the same compound, the AC50 under setting [2] is 0.82 µM [rising, single point].

With `CC(C)N1C(=O)/C(=C\c2nc3ccccc3c(=O)[nH]2)c2ccccc21`, the cell number change was -5.27%. The AC50 under setting [1] is 0.00461 µM [rising, full curve, poor fit]. Moreover, under setting [2], the AC50 was 0.00461 µM [rising, full curve, poor fit].

`COc1cn(-c2ccccc2)nc1C(=O)Nc1ccc(C)cc1`: the cell number change came to 33.3%. The half-maximal activity concentration (AC50) under setting [1] was 13 µM [rising, partial curve, poor fit]. Moreover, the AC50 under setting [2] is 6.51 µM [rising, single point].

For the compound `CCOc1cc(/C=N/O)ccc1OCC(=O)Nc1cccc(C)c1`, the cell number change was 28.3%.

For `O=C(N/N=C/c1ccc(OC(F)F)cc1OC(F)F)c1cccc(S(=O)(=O)N2CCOCC2)c1`, the cell number change was found to be 57.8%. The half-maximal activity concentration (AC50) under setting [1] was 5.8 µM [rising, full curve]. The AC50 under setting [2] is 4.61 µM [rising, partial curve].

Take `CC(=O)OC[C@H]1COc2ccc3ccccc3c2[C@H]1N(C)C(C)=O`: the cell number change was -51.4%. Also, under setting [1], the AC50 is 1.03 µM [falling, full curve, poor fit]. For the same compound, the AC50 under setting [2] was 0.58 µM [falling, full curve].

For `Cc1ccc2c(CC(=O)NCc3ccc4c(c3)OCO4)coc2c1`, the cell number change was determined as 23.9%. In addition, under setting [2], the AC50 was 29.1 µM [rising, single point].

In the case of `O=C(CSc1ccccn1)Nc1ccc(Cl)cn1`, the cell number change was -13.7%. Moreover, the half-maximal activity concentration (AC50) under setting [2] was 0.58 µM [falling, partial curve, poor fit].

Regarding `O=C(COc1ccc(S(=O)(=O)N2CCOCC2)cc1)NCCN1CCOCC1`, the cell number change was determined as 11.8%.

Regarding `CC(Oc1ccc(Cl)cc1Cl)C(=O)N/N=C1\CCCc2ccccc21` (stereo unspecified), the cell number change is 22.5%. Moreover, the AC50 under setting [1] is 0.092 µM [rising, full curve, poor fit]. Further, the concentration at half-maximal activity (AC50) under setting [2] is 0.058 µM [rising, partial curve, poor fit].

Regarding `O=C(CSc1n[nH]c(-c2ccccc2F)n1)Nc1cc(F)ccc1F`, the cell number change is 22.7%. Moreover, the AC50 under setting [2] is 29.1 µM [falling, partial curve, poor fit].

With `CC1CCN(C(=O)C2CCC(=O)N(Cc3ccc(Cl)cc3)C2)CC1` (stereo unspecified), the AC50 under setting [2] was 18.4 µM [rising, single point].

As to `CC(=O)c1ccc(N2CCN(S(=O)(=O)c3cn(C)c(C)n3)CC2)cc1`, the cell number change was found to be 43.6%. In addition, the AC50 under setting [1] is 20.6 µM [rising, partial curve]. For the same compound, under setting [2], the AC50 was 25.9 µM [rising, partial curve].

For the compound `CCc1ccc2nc(N(CCCN(C)C)C(=O)c3ccc(C(=O)c4ccccc4)cc3)sc2c1`, the cell number change is -30.4%. Moreover, the AC50 under setting [1] was 3.26 µM [rising, partial curve, poor fit]. Further, under setting [2], the AC50 was 2.06 µM [rising, partial curve, poor fit].

With `Cc1ccc(S(=O)(=O)NCC(=O)N(CC(=O)NC2CCCCC2)CC2CCCO2)cc1` (stereo unspecified), the cell number change was 48.6%. In addition, the AC50 under setting [1] was 20.6 µM [rising, single point]. In addition, the AC50 under setting [2] is 6.51 µM [falling, single point].

`N#Cc1ccc(Oc2ccc(S(=O)(=O)N3CCCC3)cn2)cc1`: the cell number change stood at 10%.

For the compound `COC(=O)c1cc2c(ccn2-c2ccc(F)cc2)n1CC(=O)C(C)(C)C`, the cell number change was -29.4%. Also, under setting [2], the AC50 was 0.184 µM [falling, full curve, poor fit].

For `O=C(CC(SCc1ccco1)c1ccc(O)cc1)c1cccs1` (stereo unspecified), the cell number change was -31.1%. Moreover, under setting [1], the half-maximal activity concentration (AC50) was 7.31 µM [falling, partial curve]. The AC50 under setting [2] is 29.1 µM [falling, single point].
